# Results: PubChem BioAssay AID588590 (National Center for Advancing Translational Sciences (NCATS), 2011)
# Protein sequences, listed by entry. Tags and fused reporters are not part of them. Lines headed by an entry give the natural chain unless they say otherwise; changes in a name come on top.
# UniProt Q9UNA4: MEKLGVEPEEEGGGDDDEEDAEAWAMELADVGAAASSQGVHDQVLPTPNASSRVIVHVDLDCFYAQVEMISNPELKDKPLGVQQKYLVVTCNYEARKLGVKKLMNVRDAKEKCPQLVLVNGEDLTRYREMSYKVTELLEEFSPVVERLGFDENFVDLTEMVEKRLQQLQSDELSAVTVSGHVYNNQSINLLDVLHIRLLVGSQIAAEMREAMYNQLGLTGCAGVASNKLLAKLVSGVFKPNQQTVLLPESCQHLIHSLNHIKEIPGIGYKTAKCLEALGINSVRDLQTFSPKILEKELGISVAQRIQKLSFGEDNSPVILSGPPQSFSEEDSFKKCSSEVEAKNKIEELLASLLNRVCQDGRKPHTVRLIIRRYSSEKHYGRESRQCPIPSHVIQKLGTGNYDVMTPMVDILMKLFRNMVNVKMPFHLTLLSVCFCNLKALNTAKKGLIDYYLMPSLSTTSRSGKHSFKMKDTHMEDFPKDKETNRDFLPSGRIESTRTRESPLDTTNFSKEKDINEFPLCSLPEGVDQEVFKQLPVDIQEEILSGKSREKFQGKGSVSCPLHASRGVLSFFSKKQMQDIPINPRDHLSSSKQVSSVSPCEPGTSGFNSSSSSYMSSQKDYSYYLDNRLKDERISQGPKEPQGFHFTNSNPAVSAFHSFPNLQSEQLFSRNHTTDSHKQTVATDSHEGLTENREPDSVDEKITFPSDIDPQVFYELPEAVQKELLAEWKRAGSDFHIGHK
# Among all 390,000 compounds or so, about 4,000 (1%) were called active. The inconclusive results got no clear call from the source; some entries with a clear call stand among them for comparison. The call rests on the fitted dose curve; in most records, active means well fitted inhibition curve with a large enough effect; inconclusive means small, poorly fitted or top-dose-only effect, or another doubt; inactive means no such curve, though single readings can be large or run the other way. Potencies of inconclusive entries are doubtful fits and often do not repeat.
# Molecular target: DNA polymerase iota (Homo sapiens) (UniProt Q9UNA4)
# Experiment: qHTS for Inhibitors of Polymerase Iota
# Conditions: Pol iota fluorescent replication assay, 10 min; series mostly up to 115 µM; activity, negative = inhibition: at the top concentration
# Procedure, shortened: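 Pol iota at 10 nM preincubated 15 min with compounds at room temperature; reaction started with fluorescent substrate, 50 nM final. Fluorescence read kinetically at 0 and 10 min; buffer-only wells as negative control.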
# Potency means the concentration at half of the fitted maximal effect.
SMILES,Potency,"activity, negative = inhibition"
O=C(CCCn1ncn2c(cc3occc32)c1=O)N1CCc2ccccc2C1,"inconclusive: 70.8 µM [inhibitor, partial curve, poor fit]",
Cc1nn(-c2ccccc2)c2sc(C(=O)OCc3nnc(-c4ccccc4)o3)cc12,"inconclusive: 15.8 µM [inhibitor, partial curve, poor fit]",
CCC(C)(C)NC(=O)c1ccc(S(=O)(=O)N2CCCCCC2)cc1,"inconclusive: 70.8 µM [inhibitor, partial curve, poor fit]",
N#Cc1ccc(CSc2nnc3ccccn23)cc1,"inconclusive: 89.1 µM [inhibitor, partial curve, poor fit]",
COc1ccc(/C=C2\SC(=S)N(CCCC(=O)Nc3ccccc3C(=O)O)C2=O)cc1OC,"inconclusive: 50.1 µM [inhibitor, partial curve, poor fit]",
COc1ccc(C(=O)CCC(C)(C)[N+](=O)[O-])cc1,,inactive: 109%
C=CCn1c(SCC(=O)c2ccc(O)c(O)c2)nnc1-c1cccc(OC)c1,"inconclusive: 79.4 µM [inhibitor, single point]",
COc1ccc(S(N)(=O)=O)cc1C(=O)OCC(=O)N1c2ccccc2NC(=O)C1(C)C,"inconclusive: 50.1 µM [inhibitor, partial curve]",
CCOC(=O)C1CCN(c2nc(N)c3c(N)nc(SCC(=O)O)cc3c2C#N)CC1,active: 25.1 µM,
CC(=O)Nc1csc2ccccc12,"inconclusive: 56.2 µM [inhibitor, single point]",
Cc1c(N=Nc2c(-c3ccc([N+](=O)[O-])cc3)[nH]n(C(N)=S)c2=O)cccc1[N+](=O)[O-],"inconclusive: 11.2 µM [inhibitor, partial curve, poor fit]",
CCC(=NCCc1ccc(OC)c(OC)c1)c1ccccc1O,"inconclusive: 6.31 µM [inhibitor, full curve, poor fit]",
Cn1ccnc1SCC(=O)Nc1sccc1C#N,"inconclusive: 15.8 µM [inhibitor, full curve, poor fit]",
CC(CN1CCOCC1)OC(=O)C(C)(c1ccccc1)c1ccccc1 (configuration not stated),"inconclusive: 12.6 µM [inhibitor, single point]",
O=C(CSc1nnc(SCc2ccc(Cl)cc2)s1)N/N=C/c1ccc(Cl)cc1Cl,,inactive: -12.7%
Cc1ccc(C)c(S(=O)(=O)c2nnn3c2nc(N2CCOCC2)c2sccc23)c1,,inactive: 28.5%
CC(=O)Nc1ccc2c(O)cc(S(=O)(=O)O)cc2c1,active: 20 µM,
COc1ccc(-c2ccc(CCC(=O)O)n2NC(N)=O)cc1,,inactive: 2.48%
COc1ccc(NC(=O)/C(C#N)=C\C=C\c2ccco2)cc1,"inconclusive: 100 µM [inhibitor, partial curve, poor fit]",
Cc1cccn2c(=O)c(C=O)c(Cl)nc12,"inconclusive: 31.6 µM [inhibitor, single point]",
O=C(Cn1nnc2ccccc2c1=O)NC1CCCc2ccccc21 (configuration not stated),"inconclusive: 70.8 µM [inhibitor, single point]",

SMILES,Potency,"activity, negative = inhibition"
O=C1ON=C(c2ccccc2)/C1=C/c1ccco1,active: 22.4 µM,
CC(C)N(Cc1ccccc1)c1ncnc2c1nnn2C,,inactive: 0.387%
COc1ccccc1CN(Cc1nc2ccccc2c(=O)[nH]1)S(=O)(=O)c1ccc(C)cc1,"inconclusive: 100 µM [inhibitor, single point]",
CCOC(=O)c1cc(-c2ccc(OC)c(S(=O)(=O)Nc3ccc(OC)cc3OC)c2)on1,"inconclusive: 4.47 µM [inhibitor, partial curve, poor fit]",
COc1ccc(/C=C/C(=O)c2ccc(C)c([N+](=O)[O-])c2)cc1O,"inconclusive: 79.4 µM [inhibitor, partial curve, poor fit]",
CCc1cc(C(=O)N2CCOCC2)c(NC2=NS(=O)(=O)c3ccccc32)s1,"inconclusive: 22.4 µM [inhibitor, partial curve]",
CCOc1cc(N2CCOCC2)c(OCC)cc1NC(=O)c1cc(-c2ccco2)nc2ccccc12,"inconclusive: 12.6 µM [inhibitor, partial curve, poor fit]",
Cc1ccc(-c2cc(C(=O)O)c3cc(Br)ccc3n2)s1,inactive,
Cc1ccc(NC(=S)N/N=C2\CC3CC=CC23)c(C)c1 (configuration not stated),"inconclusive: 10 µM [inhibitor, full curve, poor fit]",
COc1ccc(Cl)cc1NC(=O)CN(C)S(=O)(=O)c1ccc2c(c1)CCCN2C(C)=O,,inactive: 22.6%
CCc1ccc(-c2nc(CN3CCCC(C(=O)N4CCN(c5cc(Cl)ccc5C)CC4)C3)c(C)o2)cc1 (configuration not stated),,inactive: -2.69%
CCN(C(=S)Nc1ccc(Oc2ccccc2)cc1)c1ccccc1,"inconclusive: 79.4 µM [inhibitor, single point]",
O=C(C1CCN(c2nnc(-n3cccc3)s2)CC1)N1CCc2ccccc2C1,"inconclusive: 35.5 µM [inhibitor, partial curve]",
Cc1ccc(C(=O)O)cc1-c1ccc(C=C2C(=O)c3ccccc3C2=O)o1,"inconclusive: 5.62 µM [inhibitor, full curve, poor fit]",
Cc1cccc(-n2c(=O)c3c(c4cc(C)ccc4n3C)n(CC(=O)NCCC3=CCCCC3)c2=O)c1,,inactive: 8.07%
COc1ccc(-c2ccc3c(N)c(C(=O)c4cccc(OC)c4)sc3n2)cc1,"inconclusive: 22.4 µM [inhibitor, single point]",
O=C(O)c1ccc(-n2c(-c3cc(-c4ccco4)[nH]n3)n[nH]c2=S)cc1,"inconclusive: 14.1 µM [inhibitor, partial curve, poor fit]",
COc1ccc2nc(-c3ccc(N)cc3)[nH]c2c1,"inconclusive: 39.8 µM [inhibitor, single point]",
CCCN(CCC)C(=O)c1cc(S(=O)(=O)N2CCCCC2)c[nH]1,,inactive: -33.4%
O=C(Cc1ccccc1F)Nc1cc(Cl)ccc1N1CCCC1,"inconclusive: 79.4 µM [inhibitor, partial curve, poor fit]",
CC(=O)c1ccccc1NC(=O)CCCNC(=O)c1ccc(Cl)cc1,"inconclusive: 100 µM [inhibitor, single point]",

# For convenience, two of the compounds above.
SMILES,Potency,"activity, negative = inhibition"
O=C(O)c1ccc(-n2c(-c3cc(-c4ccco4)[nH]n3)n[nH]c2=S)cc1,"inconclusive: 14.1 µM [inhibitor, partial curve, poor fit]",
COc1ccc2nc(-c3ccc(N)cc3)[nH]c2c1,"inconclusive: 39.8 µM [inhibitor, single point]",
